Results published in article PMC6662699.
Where a chain is given by its changes, count along the chain named. No constants are given. Whether binding was seen depends on the method and setting. In cells and extracts the contact can be indirect. Some results given as binding are weak or reduced against the parent protein; the word gives no strength. For some of these results: Where a sequence is shown, tags or fusion partners need not be part of it. Blank lines part the entries; values can stand above or below the binder they belong to.

Columns and labels:
GST-Plk4-KD (K41R) = biological target: T1, GST-Plk4-KD (K41R) (UniProt O00444); experiment: pull-down; bacterially generated GST-Plk4-WT or KD incubated with His-Cep131 (1-911 aa) and pulled down using GSH-agarose (Fig. 3c)
T1 sequence: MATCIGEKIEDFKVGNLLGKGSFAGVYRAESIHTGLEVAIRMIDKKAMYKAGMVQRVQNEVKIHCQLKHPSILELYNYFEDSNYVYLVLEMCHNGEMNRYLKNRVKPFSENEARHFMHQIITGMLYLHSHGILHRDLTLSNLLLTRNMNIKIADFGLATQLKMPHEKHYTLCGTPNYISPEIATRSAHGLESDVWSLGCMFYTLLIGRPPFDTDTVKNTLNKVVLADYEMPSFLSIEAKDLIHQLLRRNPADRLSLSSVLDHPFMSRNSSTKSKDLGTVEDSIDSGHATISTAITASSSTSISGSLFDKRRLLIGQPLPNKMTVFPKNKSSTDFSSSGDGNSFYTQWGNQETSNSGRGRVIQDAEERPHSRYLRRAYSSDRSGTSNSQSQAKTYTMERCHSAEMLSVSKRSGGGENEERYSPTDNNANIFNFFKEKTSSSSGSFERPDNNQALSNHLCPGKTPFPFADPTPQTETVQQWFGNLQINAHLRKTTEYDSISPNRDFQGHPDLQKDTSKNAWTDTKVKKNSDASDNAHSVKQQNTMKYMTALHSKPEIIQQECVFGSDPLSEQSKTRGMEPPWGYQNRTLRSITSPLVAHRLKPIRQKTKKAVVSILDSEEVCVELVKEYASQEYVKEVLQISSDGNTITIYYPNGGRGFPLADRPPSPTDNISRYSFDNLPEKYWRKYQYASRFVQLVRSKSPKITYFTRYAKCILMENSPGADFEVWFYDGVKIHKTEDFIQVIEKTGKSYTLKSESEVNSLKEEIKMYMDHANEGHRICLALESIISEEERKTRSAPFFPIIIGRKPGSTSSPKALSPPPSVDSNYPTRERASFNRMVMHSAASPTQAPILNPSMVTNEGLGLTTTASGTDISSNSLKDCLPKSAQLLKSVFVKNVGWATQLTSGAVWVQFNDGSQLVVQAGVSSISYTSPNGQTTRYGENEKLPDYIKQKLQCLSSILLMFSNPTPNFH

GST-Plk4-WT = biological target: T2, GST-Plk4-WT (UniProt O00444); experiment: as above
T2 sequence: T1 sequence with R41K

[1] = biological target: T3, Endogenous Plk4 (human (endogenous in U2OS)) (UniProt O00444); experiment: co-IP; endogenous Plk4 extracted from U2OS cells immunoprecipitated by anti-Plk4; immunoblotting (Fig. 3b)
T3 sequence: T1 sequence with R41K

[2] = biological target: T4, Endogenous STIL (human (endogenous in U2OS)) (UniProt Q15468); experiment: co-IP; endogenous STIL extracted from U2OS cells immunoprecipitated; cells with or without shPlk4; immunoblotting (Fig. 5f)
T4 sequence: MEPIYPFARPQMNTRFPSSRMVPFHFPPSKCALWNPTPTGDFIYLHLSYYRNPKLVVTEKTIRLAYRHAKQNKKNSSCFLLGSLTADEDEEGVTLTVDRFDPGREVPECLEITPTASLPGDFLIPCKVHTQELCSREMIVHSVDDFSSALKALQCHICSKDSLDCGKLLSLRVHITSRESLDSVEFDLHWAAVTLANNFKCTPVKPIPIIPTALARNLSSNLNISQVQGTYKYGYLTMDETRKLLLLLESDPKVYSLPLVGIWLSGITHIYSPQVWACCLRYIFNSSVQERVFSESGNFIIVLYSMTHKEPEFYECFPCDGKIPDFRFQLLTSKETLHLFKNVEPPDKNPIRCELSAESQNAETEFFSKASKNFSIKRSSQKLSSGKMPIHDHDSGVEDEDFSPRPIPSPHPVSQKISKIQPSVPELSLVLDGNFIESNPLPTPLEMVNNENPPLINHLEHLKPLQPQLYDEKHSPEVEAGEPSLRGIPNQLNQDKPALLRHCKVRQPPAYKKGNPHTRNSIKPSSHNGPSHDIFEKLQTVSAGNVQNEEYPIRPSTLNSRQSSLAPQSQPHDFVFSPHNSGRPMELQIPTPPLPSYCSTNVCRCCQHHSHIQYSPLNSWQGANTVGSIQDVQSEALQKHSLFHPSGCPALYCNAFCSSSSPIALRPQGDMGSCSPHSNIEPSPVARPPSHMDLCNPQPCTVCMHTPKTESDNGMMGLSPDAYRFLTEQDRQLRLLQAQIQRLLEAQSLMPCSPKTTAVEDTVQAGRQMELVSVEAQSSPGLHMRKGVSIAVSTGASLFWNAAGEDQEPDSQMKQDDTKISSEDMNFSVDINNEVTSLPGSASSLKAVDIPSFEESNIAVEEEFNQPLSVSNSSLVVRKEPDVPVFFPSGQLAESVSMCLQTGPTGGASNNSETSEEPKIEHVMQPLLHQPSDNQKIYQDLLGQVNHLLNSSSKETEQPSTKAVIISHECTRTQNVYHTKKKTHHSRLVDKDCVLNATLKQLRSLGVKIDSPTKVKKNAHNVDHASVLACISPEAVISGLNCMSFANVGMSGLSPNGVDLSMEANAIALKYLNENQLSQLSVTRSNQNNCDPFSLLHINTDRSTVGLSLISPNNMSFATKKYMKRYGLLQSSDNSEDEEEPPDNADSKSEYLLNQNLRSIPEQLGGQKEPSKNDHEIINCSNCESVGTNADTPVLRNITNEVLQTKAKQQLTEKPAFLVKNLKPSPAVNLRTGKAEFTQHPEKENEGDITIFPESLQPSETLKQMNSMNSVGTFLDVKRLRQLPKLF

binding (GST-Plk4-KD (K41R)): binds
binding (GST-Plk4-WT): binds
B1: His-Cep131 (1-911 aa) (domain or fragment, UniProt Q9UPN4 1-911)
chain: MKGTRAIGSVPERSPAGVDLSLTGLPPPVSRRPGSAATTKPIVRSVSVVTGSEQKRKVLEATGPGGSQAINNLRRSNSTTQVSQPRSGSPRPTEPTDFLMLFEGSPSGKKRPASLSTAPSEKGATWNVLDDQPRGFTLPSNARSSSALDSPAGPRRKECTVALAPNFTANNRSNKGAVGNCVTTMVHNRYTPSERAPPLKSSNQTAPSLNNIIKAATCEGSESSGFGKLPKNVSSATHSARNNTGGSTGLPRRKEVTEEEAERFIHQVNQATVTIQRWYRHQVQRRGAGAARLEHLLQAKREEQRQRSGEGTLLDLHQQKEAARRKAREEKARQARRAAIQELQQKRALRAQKASTAERGPPENPRETRVPGMRQPAQELSPTPGGTAHQALKANNTGGGLPAAGPGDRCLPTSDSSPEPQQPPEDRTQDVLAQDAAGDNLEMMAPSRGSAKSRGPLEELLHTLQLLEKEPDVLPRPRTHHRGRYAWASEVTTEDDASSLTADNLEKFGKLSAFPEPPEDGTLLSEAKLQSIMSFLDEMEKSGQDQLDSQQEGWVPEAGPGPLELGSEVSTSVMRLKLEVEEKKQAMLLLQRALAQQRDLTARRVKETEKALSRQLQRQREHYEATIQRHLAFIDQLIEDKKVLSEKCEAVVAELKQEDQRCTERVAQAQAQHELEIKKLKELMSATEKARREKWISEKTKKIKEVTVRGLEPEIQKLIARHKQEVRRLKSLHEAELLQSDERASQRCLRQAEELREQLEREKEALGQQERERARQRFQQHLEQEQWALQQQRQRLYSEVAEERERLGQQAARQRAELEELRQQLEESSSALTRALRAEFEKGREEQERRHQMELNTLKQQLELERQAWEAGRTRKEEAWLLNREQELREEIRKGRDKEIELVIHRLEADM

binding [1]: binds
binding [2]: binds
B2: Endogenous Cep131 (protein, UniProt Q9UPN4 1-1083)
chain: MKGTRAIGSVPERSPAGVDLSLTGLPPPVSRRPGSAATTKPIVRSVSVVTGSEQKRKVLEATGPGGSQAINNLRRSNSTTQVSQPRSGSPRPTEPTDFLMLFEGSPSGKKRPASLSTAPSEKGATWNVLDDQPRGFTLPSNARSSSALDSPAGPRRKECTVALAPNFTANNRSNKGAVGNCVTTMVHNRYTPSERAPPLKSSNQTAPSLNNIIKAATCEGSESSGFGKLPKNVSSATHSARNNTGGSTGLPRRKEVTEEEAERFIHQVNQATVTIQRWYRHQVQRRGAGAARLEHLLQAKREEQRQRSGEGTLLDLHQQKEAARRKAREEKARQARRAAIQELQQKRALRAQKASTAERGPPENPRETRVPGMRQPAQELSPTPGGTAHQALKANNTGGGLPAAGPGDRCLPTSDSSPEPQQPPEDRTQDVLAQDAAGDNLEMMAPSRGSAKSRGPLEELLHTLQLLEKEPDVLPRPRTHHRGRYAWASEVTTEDDASSLTADNLEKFGKLSAFPEPPEDGTLLSEAKLQSIMSFLDEMEKSGQDQLDSQQEGWVPEAGPGPLELGSEVSTSVMRLKLEVEEKKQAMLLLQRALAQQRDLTARRVKETEKALSRQLQRQREHYEATIQRHLAFIDQLIEDKKVLSEKCEAVVAELKQEDQRCTERVAQAQAQHELEIKKLKELMSATEKARREKWISEKTKKIKEVTVRGLEPEIQKLIARHKQEVRRLKSLHEAELLQSDERASQRCLRQAEELREQLEREKEALGQQERERARQRFQQHLEQEQWALQQQRQRLYSEVAEERERLGQQAARQRAELEELRQQLEESSSALTRALRAEFEKGREEQERRHQMELNTLKQQLELERQAWEAGRTRKEEAWLLNREQELREEIRKGRDKEIELVIHRLEADMALAKEESEKAAESRIKRLRDKYEAELSELEQSERKLQERCSELKGQLGEAEGENLRLQGLVRQKERALEDAQAVNEQLSSERSNLAQVIRQEFEDRLAASEEETRQAKAELATLQARQQLELEEVHRRVKTALARKEEAVSSLRTQHEAAVKRADHLEELLEQHRRPTPSTK
